# The campaign covered roughly 580,000 compounds. About 6,100 (1.1%) were called active. This list was built around the results that the source calls inconclusive (neither active nor inactive); the mix of calls is not that of the screen. Calls follow the shape of the dose curve; as a rule, active = well fitted inhibition curve with a large enough effect; inconclusive = small, poorly fitted or top-dose-only effect, or another doubt; inactive = no such curve, though single readings can be large or run the other way. Potencies of inconclusive entries are doubtful fits and often do not repeat.
# Sequences of proteins named here, by UniProt entry; tags and fusion partners are left off. A change or cut given only in a name is not applied to a line headed by its entry.
# UniProt P18054: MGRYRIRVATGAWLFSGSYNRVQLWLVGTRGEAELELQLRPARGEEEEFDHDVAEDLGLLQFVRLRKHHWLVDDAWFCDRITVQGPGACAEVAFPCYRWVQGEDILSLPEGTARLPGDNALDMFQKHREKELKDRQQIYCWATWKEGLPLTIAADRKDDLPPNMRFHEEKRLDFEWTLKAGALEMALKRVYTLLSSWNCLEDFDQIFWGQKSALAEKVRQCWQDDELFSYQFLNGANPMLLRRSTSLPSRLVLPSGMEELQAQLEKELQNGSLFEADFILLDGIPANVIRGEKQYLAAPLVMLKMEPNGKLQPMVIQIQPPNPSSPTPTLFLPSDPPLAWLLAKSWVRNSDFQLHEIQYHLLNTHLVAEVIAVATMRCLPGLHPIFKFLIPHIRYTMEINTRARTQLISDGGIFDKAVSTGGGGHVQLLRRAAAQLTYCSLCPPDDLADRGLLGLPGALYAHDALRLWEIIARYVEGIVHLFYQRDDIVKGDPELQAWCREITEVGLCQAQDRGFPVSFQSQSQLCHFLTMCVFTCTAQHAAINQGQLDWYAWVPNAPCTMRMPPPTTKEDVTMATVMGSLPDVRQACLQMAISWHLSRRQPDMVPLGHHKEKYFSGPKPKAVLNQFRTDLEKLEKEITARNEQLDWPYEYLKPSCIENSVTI
# Biological target: Polyunsaturated fatty acid lipoxygenase ALOX12 (Homo sapiens) (UniProt P18054)
# Assay: Primary qHTS assay for inhibitors of human arachidonate 12S-lipoxygenase (ALOX12): Round 2
# Conditions: purified 12hLO, xylenol orange hydroperoxide absorbance; activity change, negative = inhibition: at 108 µM (top of the series) unless noted
# In short: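 Hydroperoxide product was detected by ferrous iron/xylenol orange as the 573 to 405 nm absorbance ratio. Arachidonic acid at 40 uM (final) was turned over for 30 min at room temperature by 150 nM human 12hLO, pH 7.0 Hepes buffer, after 15 min compound preincubation.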
# % is scaled to controls: 0 for no effect and ±100 for the full control effect; potency is read from the fitted curve at half-maximal effect.
SMILES,Potency,"activity change, negative = inhibition"
COc1cccc(-c2ccc(CN3C4CCC3CN(C(=O)Nc3ccccc3F)C4)cc2)c1,"inconclusive: 11.2 µM [inhibitor, full curve]",
CC(=O)N1c2ccc(S(=O)(=O)N3CCCC3)cc2CC1C(=O)NCCc1ccccc1Cl (stereo unspecified),,inactive: -7.22%
Cc1ccccc1NS(=O)(=O)c1cc(C(=O)Nc2cccc(N(C)S(C)(=O)=O)c2)ccc1C,,inactive: 19%
Cc1cc(C)cc(NC(=O)Nc2cc(S(=O)(=O)N(C)C)ccc2C)c1,,inactive: 41%
COc1ccc(NS(=O)(=O)c2ccc(N3CCCC3)c(NC(=S)Nc3ccc(SC(F)F)cc3)c2)cc1,active: 25.1 µM,
Cc1ccc2nc(/C(C#N)=C\c3ccccc3)[nH]c2c1,"inconclusive: 79.4 µM [inhibitor, partial curve, poor fit]",
COc1cccc2cc(C(=O)N3C(C)CCCC3C)c(=O)oc12 (stereo unspecified),"inconclusive: 4.47 µM [inhibitor, single point]",
COc1cccc(C(=O)NC(=S)Nc2ccc(N(C)C)cc2)c1,active: 44.7 µM,
c1ccc(-c2n[nH]c(CC3CCNC3)n2)cc1 (stereo unspecified),"inconclusive: 4.47 µM [inhibitor, full curve, poor fit]",
CC(C)Oc1ccc(/C=N/NC(N)=S)cc1,"inconclusive: 39.8 µM [inhibitor, partial curve]",
COc1ccc(-c2csc(N(CC3CCCO3)C(=O)c3ccco3)n2)cc1 (stereo unspecified),"inconclusive: 112 µM [inhibitor, partial curve, poor fit]",
NC(=O)c1ccccc1-c1nc(-n2ccnc2)c2ccccc2n1,"inconclusive: 11.2 µM [inhibitor, full curve, poor fit]",
CN(CC(=O)Nc1ccc(Cl)cc1)Cc1cc(Cl)cc2c1OCOC2,"inconclusive: 56.2 µM [inhibitor, partial curve, poor fit]",
Cc1c(C(=O)N(CC(C)C)c2c(N)n(Cc3ccccc3)c(=O)[nH]c2=O)sc2nc3n(c(=O)c12)CCC3,"inconclusive: 100 µM [inhibitor, single point]",
COc1ccc2[nH]cc(CCNC(=O)C3CCCCC(=O)N3Cc3ccccc3)c2c1 (stereo unspecified),,inactive: -3.38%
O=C(Cc1ccccc1)NCC(=O)OCC(=O)c1ccc([N+](=O)[O-])cc1,"inconclusive: 79.4 µM [inhibitor, partial curve, poor fit]",
CCCC/C(C)=N/NC(=O)C(=O)NCCc1ccccc1,"inconclusive: 6.31 µM [inhibitor, partial curve, poor fit]",
CCC(C(=O)Nc1nc2ccc(C)cc2s1)c1ccccc1 (stereo unspecified),"inconclusive: 44.7 µM [inhibitor, partial curve, poor fit]",
COCCNC(=O)C1(C(F)(F)F)CC(CCCO)CCCO1 (stereo unspecified),"inconclusive: 100 µM [inhibitor, single point]",
CCN1CCC(NC(=O)Cc2cn(C)c3ccccc23)CC1,"inconclusive: 112 µM [inhibitor, single point]",
CCOC(=O)CSc1nnc(-c2cccc(Cl)c2)n1CC,"inconclusive: 126 µM [inhibitor, partial curve, poor fit]",
Cc1noc(C)c1S(=O)(=O)N1CCCOCCNC(=O)[C@@H]2CCC[C@@H]21,,inactive: 34.4%

# Retrieved by structure from the list above (5):
SMILES,Potency,"activity change, negative = inhibition"
COc1cccc2cc(C(=O)N3C(C)CCCC3C)c(=O)oc12 (stereo unspecified),"inconclusive: 4.47 µM [inhibitor, single point]",
CCC(C(=O)Nc1nc2ccc(C)cc2s1)c1ccccc1 (stereo unspecified),"inconclusive: 44.7 µM [inhibitor, partial curve, poor fit]",
COc1ccc2[nH]cc(CCNC(=O)C3CCCCC(=O)N3Cc3ccccc3)c2c1 (stereo unspecified),,inactive: -3.38%
COc1cccc(-c2ccc(CN3C4CCC3CN(C(=O)Nc3ccccc3F)C4)cc2)c1,"inconclusive: 11.2 µM [inhibitor, full curve]",
COc1ccc(-c2csc(N(CC3CCCO3)C(=O)c3ccco3)n2)cc1 (stereo unspecified),"inconclusive: 112 µM [inhibitor, partial curve, poor fit]",

# Later entries:

SMILES,Potency,"activity change, negative = inhibition"
COc1ccccc1C(=O)Nc1nnc(SCc2cc(=O)c3ccccc3[nH]2)s1,"inconclusive: 100 µM [inhibitor, partial curve, poor fit]",
CCOC(=O)C1CCN(Cc2ccc(F)c(Br)c2)CC1,"inconclusive: 0.447 µM [inhibitor, full curve, poor fit]",
C=Cc1ccc(CN2C(=O)N(c3ccc(C)c(C)c3)S(=O)(=O)c3ccccc32)cc1,"inconclusive: 10 µM [inhibitor, full curve, poor fit]",
C=CCCC(CN1CCCC1)Oc1ccc(C(=O)N2CCCC2)cn1 (stereo unspecified),,inactive: 17.3%
COCCNC(=O)c1cc(-c2ccc(OC)cc2)nc2onc(C3CCCN3)c12 (stereo unspecified),"inconclusive: 11.2 µM [inhibitor, full curve]",
COc1cc(-c2nnc(SC(C)C(=O)Nc3c(C)n(C)n(-c4ccccc4)c3=O)o2)cc(OC)c1OC (stereo unspecified),"inconclusive: 8.91 µM [inhibitor, full curve, poor fit]",
CC(C)(C)OC(=O)N1Cc2cc3ccccc3nc2C1,"inconclusive: 39.8 µM [inhibitor, single point]",
Cc1ccc(C(=O)N2CCCN(c3cc(-c4ccc(Cl)cc4)[nH]n3)CC2)cc1C,,inactive: -7.93%
O=C(c1ccc2c(c1)OCO2)[C@@H]1[C@@H]2C(=O)N(C3CCCCC3)C(=O)[C@@H]2C2c3ccccc3C=CN21 (stereo partly specified),"inconclusive: 100 µM [inhibitor, single point]",
O=C(CN1CCOCC1)OCCCc1ccccc1,,inactive: -22.7%
Cc1cc(/C=C2/C(=N)N3C(=NC2=O)SN=C3S(C)(=O)=O)c(C)n1-c1ccccc1,"inconclusive: 44.7 µM [inhibitor, partial curve]",
CCc1nc(C)ccc1OC(=O)C12CC3CC(CC(C3)C1)C2,"inconclusive: 56.2 µM [inhibitor, partial curve, poor fit]",
CCOC(=O)c1c(-c2cccs2)csc1NC(C)=O,"inconclusive: 126 µM [inhibitor, single point]",
Cc1ccc(-n2c(=O)c3ccc(C(=O)NCc4ccco4)cc3n(Cc3ccccc3Cl)c2=O)cc1,,inactive: -25.2%
COc1ccc(N(C(=O)c2ccco2)C(C(=O)NC2CCCC2)c2ccc(N(C)C)cc2)cc1 (stereo unspecified),,inactive: 0%
O=C(Cc1ccc(Cl)c(Cl)c1)N/N=C/c1cccnc1,"inconclusive: 112 µM [inhibitor, single point]",
O=c1cc(Br)c(O)c(Br)cc1Br,"inconclusive: 22.4 µM [inhibitor, partial curve]",
Cc1ccc(CC(=O)Nc2ncc([N+](=O)[O-])s2)cc1,"inconclusive: 39.8 µM [inhibitor, single point]",
CC1CCCCN1CCNC(=O)c1ccc(Cn2c(SCc3ccccc3)nc3cccnc32)cc1 (stereo unspecified),,inactive: -7.99%
CC(C)NCCCOc1ccc(Cl)cc1Br,"inconclusive: 2 µM [inhibitor, full curve]",
COc1ccc(NC(=O)CN(C)CC(=O)Nc2cccc(F)c2)cc1S(=O)(=O)N1CCCCC1,,inactive: -19.8%
CCS(=O)(=O)c1ncc(Cl)c(C(=O)Nc2ccc(S(=O)(=O)N(C)c3ccccc3)cc2)n1,inactive,

SMILES,Potency,"activity change, negative = inhibition"
CC(=O)N1CCN(CCS(=O)(=O)c2cc(Cl)ccc2Cl)CC1,"inconclusive: 100 µM [inhibitor, partial curve, poor fit]",
Cc1cccc(C)c1Nc1sc(C(=O)c2ccccc2)c(N)c1S(=O)(=O)c1ccccc1,,inactive: -16.9%
CCN(CC)Cc1c(O)ccc2c(=O)c(-c3ccccc3)coc12,"inconclusive: 50.1 µM [inhibitor, single point]",
CC(C)C(NCc1c(Cl)cccc1Cl)C(=O)O (stereo unspecified),"inconclusive: 5.01 µM [inhibitor, full curve, poor fit]",
O=c1[nH]c2ccc(NC(=S)Nc3ccccc3Cl)cc2[nH]1,"inconclusive: 79.4 µM [inhibitor, partial curve, poor fit]",
Cc1cc(C)n2[nH]c(=O)c(N=Nc3cccc(Cl)c3)c2n1,"inconclusive: 0.398 µM [inhibitor, full curve, poor fit]",
NC(=O)NC(=O)CSc1nc2ccccc2c(=O)n1-c1ccccc1Cl,"inconclusive: 35.5 µM [inhibitor, single point]",
Nc1ncnc2c1ncn2[C@@H]1O[C@H](CNCc2ccc(-c3cc(C(F)(F)F)ccc3Cl)o2)[C@@H](O)[C@H]1O,,inactive: -2.15%
Cc1nn2c(c1-c1cccnc1N1CCOCC1)N(CCC(C)C)CCC2,active: 17.8 µM,
COc1ccc(-c2c3c(=O)n(C)c(=O)n(C)c3c3n2-c2ccccc2NC3c2ccc(C#N)cc2)cc1 (stereo unspecified),"inconclusive: 11.2 µM [inhibitor, full curve, poor fit]",
N#C/C(=N\Nc1ccccc1)C(N)=S,"inconclusive: 5.01 µM [inhibitor, full curve, poor fit]",
O=C(NCc1ccccc1Cl)C1CCCN1C(=O)NC1CCCCC1 (stereo unspecified),"inconclusive: 112 µM [inhibitor, single point]",
O=C(NC(=S)N1CCCC1)c1ccccc1F,"inconclusive: 50.1 µM [inhibitor, partial curve, poor fit]",
Cc1ccsc1C(=O)N1CCc2c(nc3cc[nH]n3c2=O)C1,"inconclusive: 7.08 µM [inhibitor, partial curve, poor fit]",
COc1ccc2nc3sc(C(=O)NCCc4ccc(Cl)cc4)cc3cc2c1,"inconclusive: 126 µM [inhibitor, partial curve, poor fit]",
CCOC(=O)c1cnc2c(Cl)c(Cl)ccc2c1N1CCN(C)CC1,"inconclusive: 28.2 µM [inhibitor, partial curve, poor fit]",
CC(C)=CCC/C(C)=C/CNC(=O)C[C@H]1C[C@H](C(=O)N(C(C)C)C(C)C)[C@@]2(C)c3[nH]c4cc(CCC(=O)N(C)C)ccc4c3CCN2C1=O,"inconclusive: 100 µM [inhibitor, single point]",
Cc1cc(/C=N/NC(=O)c2ccncc2)c(C)n1-c1ccccc1,,inactive: 4.18%
O=[N+]([O-])c1ccc(COc2ccc(I)cc2)cc1,"inconclusive: 39.8 µM [inhibitor, partial curve, poor fit]",
Cc1ccc(C(=O)N(CCc2ccccc2)Cc2ccccc2)cc1S(=O)(=O)N1CCOCC1,,inactive: 11.5%
Fc1ccc(NC(=S)N2N=CCC2c2ccccc2)cc1 (stereo unspecified),,inactive: -22.3%
O=C1CCN(Cc2ccncc2)CCCC(C(=O)Nc2ccccc2CCc2ccncc2)CCN1 (stereo unspecified),,inactive: 59.4%
